{"source": "PubChem BioAssay AID652259 – Drosophila RNAi Screening Center, 2013", "aim": "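Identify new Wingless signalling regulators in fly cells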 (primary screen)", "cells": "Drosophila clone 8 imaginal disc epithelial cells", "reagents": "long dsRNA against Drosophila genes", "treatment": "pathway stimulated by co-transfected Wingless expression plasmid", "measured": "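Firefly luciferase from a tcf-site Wingless reporter, measured alongside co-transfected Renilla luciferase that tracks transfection; pathway stimulated by a Wingless plasmid; the firefly-to-Renilla ratio is not deposited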", "direction": "firefly reporter light: higher = more Wg reporter light, before normalisation; Renilla control light: higher = more transfected or surviving cells", "call rule": "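Strong candidates differ from their plate mean by at least two out of four per-plate statistical tests; weak candidates meet just one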", "meaning of the calls": "active = candidate regulator (raises or lowers reporter); inactive = not a candidate", "note": "The deposit covers about 22,000 reagents; this is a random part of those with a known target gene and a result. Of all reagents, 233 (1.1%) were called active. 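Light values are raw, unnormalised plate reads; the ratio scores behind the reporter calls were not deposited.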 Entries without a mark were called inactive. Reagents against one gene are numbered here. The record does not give: the amount of reagent, the time to read-out, the dose of the treatment."}
{"gene":"CG13978","reagent":1,"firefly reporter light, replicate 1":7963,"Renilla control light, replicate 1":2592}
{"gene":"CG14085","reagent":1,"firefly reporter light, replicate 1":18248,"Renilla control light, replicate 1":6167}
{"gene":"CG13454","reagent":1,"firefly reporter light, replicate 1":3892,"Renilla control light, replicate 1":992}
{"gene":"M7BP (Myosin-7a binding protein)","reagent":1,"firefly reporter light, replicate 1":16197,"Renilla control light, replicate 1":6708}
{"gene":"M7BP (Myosin-7a binding protein)","reagent":2,"firefly reporter light, replicate 1":20141,"Renilla control light, replicate 1":8323}
{"gene":"M7BP (Myosin-7a binding protein)","reagent":3,"firefly reporter light, replicate 1":8838,"Renilla control light, replicate 1":1524}
{"gene":"M7BP (Myosin-7a binding protein)","reagent":4,"firefly reporter light, replicate 1":4048,"firefly reporter light, replicate 2":6915,"Renilla control light, replicate 1":1012,"Renilla control light, replicate 2":2235}
{"gene":"M7BP (Myosin-7a binding protein)","reagent":5,"firefly reporter light, replicate 1":4632,"firefly reporter light, replicate 2":8265,"Renilla control light, replicate 1":1171,"Renilla control light, replicate 2":3063}
{"gene":"CG1468","reagent":1,"firefly reporter light, replicate 1":1643,"firefly reporter light, replicate 2":3956,"Renilla control light, replicate 1":916,"Renilla control light, replicate 2":1738}

Ordered by “Renilla control light, replicate 2” (low to high): some entries from above
{"gene":"CG1468","reagent":1,"firefly reporter light, replicate 1":1643,"firefly reporter light, replicate 2":3956,"Renilla control light, replicate 1":916,"Renilla control light, replicate 2":1738}
{"gene":"M7BP (Myosin-7a binding protein)","reagent":5,"firefly reporter light, replicate 1":4632,"firefly reporter light, replicate 2":8265,"Renilla control light, replicate 1":1171,"Renilla control light, replicate 2":3063}

Further results:
{"gene":"CG7130","reagent":1,"firefly reporter light, replicate 1":22056,"Renilla control light, replicate 1":6828}
{"gene":"Fum2 (Fumarase 2)","reagent":1,"firefly reporter light, replicate 1":17360,"Renilla control light, replicate 1":10461}
{"gene":"resilin","reagent":1,"firefly reporter light, replicate 1":15162,"Renilla control light, replicate 1":11500}
{"gene":"resilin","reagent":2,"firefly reporter light, replicate 1":9244,"Renilla control light, replicate 1":2816}
{"gene":"CG31913","reagent":1,"firefly reporter light, replicate 1":14266,"Renilla control light, replicate 1":6571}
{"gene":"CG9899","reagent":1,"firefly reporter light, replicate 1":3479,"firefly reporter light, replicate 2":9155,"Renilla control light, replicate 1":800,"Renilla control light, replicate 2":3083}
{"gene":"vvl (ventral veins lacking)","reagent":1,"firefly reporter light, replicate 1":1770,"firefly reporter light, replicate 2":6282,"Renilla control light, replicate 1":1168,"Renilla control light, replicate 2":2381}
{"gene":"CG14629","reagent":1,"firefly reporter light, replicate 1":16612,"Renilla control light, replicate 1":12116}
